Article PMC2913955, “Whole-cell fungal transformation of precursors into dyes” (Microbial Cell Factories, 2010)

System: Trametes versicolor (TV7)
Experiment: Whole-cell biotransformation in liquid culture, biomass immobilized on PMS
Type: cell-based
Conditions: strain TV7 on PMS, 1 mM precursor, 10 times diluted GPA, 48 hours, at product λmax (2,5DABS: sum of 460 and 544 nm)

Oc1ccc2ccc(O)cc2c1 [DHN, 2,7-dihydroxynaphtalene]
Absorbance of product (Abs): 0.18 ± 0.03 Abs
